Source: patent publication US10070645B2, “N-cycloalkyl-N-{[2-(1-substitutedcycloalkyl)phenyl]methylene}-(thio)carboxamide derivatives” (BAYER CROPSCIENCE AKTIENGESELLSCHAFT, priority 2013, dated 2018)
Some entries share one result that the patent states for a list of compounds.

Tested on: Phakopsora pachyrhizi
Assay: In vivo preventive test on Phakopsora pachyrhizi (soybean rust)
Conditions: dose of 10 ppm of active ingredient
Procedure: In Vivo Preventive Test on Phakopsora pachyrhizi (Soybean Rust)
Solvent: 24.5 parts by weight of acetone • 24.5 parts by weight of N,N-dimethylacetamide
Emulsifier: 1 part by weight of alkylaryl polyglycol ether
To produce a suitable preparation of active compound, 1 part by weight of active compound is mixed with the stated amounts of solvent and emulsifier, and the concentrate is diluted with water to the desired concentration.
To test for preventive activity, young plants are sprayed with the preparation of active compound at the stated rate of application. After the spray coating has dried on, the plants are inoculated with an aqueous spore suspension of the causal agent of soybean rust (Phakopsora pachyrhizi) and stay for 24 h without light in an incubation cabinet at approximately 24° C. and a relative atmospheric humidity of 95%.
The plants remain in the incubation cabinet at approximately 24° C. and a relative atmospheric humidity of approximately 80% and a day/night interval of 12 h.
The test is evaluated 7 days after the inoculation. 0% means an efficacy which corresponds to that of the untreated control, while an efficacy of 100% means that no disease is observed.

With `CCC1(c2cc(C)c(F)cc2CN(C(=O)c2c(C(F)F)nn(C)c2F)C2CC2)CC1` [I.106] the protection was “at least 80%”.

For `Cn1nc(C(F)F)c(C(=O)N(Cc2cc(F)ccc2C2(C)CC2)C2CC2)c1F` [I.066], the protection was “at least 80%”.
